These are yes or no findings as the source states them, for the method shown. Binding can be weak; no strength is given.
Experiments:
Test in all cases: cross-linking
[1] = target: CNOT6 subunit of human CCR4-NOT (human) (UniProt Q9ULM6)
[2] = target: CNOT1 subunit of human CCR4-NOT (human) (UniProt A5YKK6)
[3] = target: CNOT9 subunit of human CCR4-NOT (human) (UniProt Q92600)
[4] = target: CNOT2 subunit of human CCR4-NOT (human) (UniProt Q9NZN8)

Protein sequences, listed by entry. Tags and fused reporters are not part of them. Lines headed by an entry give the natural chain unless they say otherwise; changes in a name come on top.
UniProt Q9ULM6: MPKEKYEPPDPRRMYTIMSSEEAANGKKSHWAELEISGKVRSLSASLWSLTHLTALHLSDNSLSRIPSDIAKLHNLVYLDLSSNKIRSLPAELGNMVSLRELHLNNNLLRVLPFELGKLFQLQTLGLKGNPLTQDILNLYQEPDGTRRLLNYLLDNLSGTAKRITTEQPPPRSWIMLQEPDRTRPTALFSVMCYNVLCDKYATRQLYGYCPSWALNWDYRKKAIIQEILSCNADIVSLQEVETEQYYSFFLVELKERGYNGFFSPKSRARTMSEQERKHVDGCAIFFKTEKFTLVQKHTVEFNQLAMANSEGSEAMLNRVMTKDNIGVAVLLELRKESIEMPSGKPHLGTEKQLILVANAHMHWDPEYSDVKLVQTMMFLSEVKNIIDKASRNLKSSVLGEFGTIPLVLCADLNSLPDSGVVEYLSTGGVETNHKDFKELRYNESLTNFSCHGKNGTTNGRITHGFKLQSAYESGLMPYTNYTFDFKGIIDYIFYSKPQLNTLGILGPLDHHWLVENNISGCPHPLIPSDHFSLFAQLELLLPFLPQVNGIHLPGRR
UniProt A5YKK6: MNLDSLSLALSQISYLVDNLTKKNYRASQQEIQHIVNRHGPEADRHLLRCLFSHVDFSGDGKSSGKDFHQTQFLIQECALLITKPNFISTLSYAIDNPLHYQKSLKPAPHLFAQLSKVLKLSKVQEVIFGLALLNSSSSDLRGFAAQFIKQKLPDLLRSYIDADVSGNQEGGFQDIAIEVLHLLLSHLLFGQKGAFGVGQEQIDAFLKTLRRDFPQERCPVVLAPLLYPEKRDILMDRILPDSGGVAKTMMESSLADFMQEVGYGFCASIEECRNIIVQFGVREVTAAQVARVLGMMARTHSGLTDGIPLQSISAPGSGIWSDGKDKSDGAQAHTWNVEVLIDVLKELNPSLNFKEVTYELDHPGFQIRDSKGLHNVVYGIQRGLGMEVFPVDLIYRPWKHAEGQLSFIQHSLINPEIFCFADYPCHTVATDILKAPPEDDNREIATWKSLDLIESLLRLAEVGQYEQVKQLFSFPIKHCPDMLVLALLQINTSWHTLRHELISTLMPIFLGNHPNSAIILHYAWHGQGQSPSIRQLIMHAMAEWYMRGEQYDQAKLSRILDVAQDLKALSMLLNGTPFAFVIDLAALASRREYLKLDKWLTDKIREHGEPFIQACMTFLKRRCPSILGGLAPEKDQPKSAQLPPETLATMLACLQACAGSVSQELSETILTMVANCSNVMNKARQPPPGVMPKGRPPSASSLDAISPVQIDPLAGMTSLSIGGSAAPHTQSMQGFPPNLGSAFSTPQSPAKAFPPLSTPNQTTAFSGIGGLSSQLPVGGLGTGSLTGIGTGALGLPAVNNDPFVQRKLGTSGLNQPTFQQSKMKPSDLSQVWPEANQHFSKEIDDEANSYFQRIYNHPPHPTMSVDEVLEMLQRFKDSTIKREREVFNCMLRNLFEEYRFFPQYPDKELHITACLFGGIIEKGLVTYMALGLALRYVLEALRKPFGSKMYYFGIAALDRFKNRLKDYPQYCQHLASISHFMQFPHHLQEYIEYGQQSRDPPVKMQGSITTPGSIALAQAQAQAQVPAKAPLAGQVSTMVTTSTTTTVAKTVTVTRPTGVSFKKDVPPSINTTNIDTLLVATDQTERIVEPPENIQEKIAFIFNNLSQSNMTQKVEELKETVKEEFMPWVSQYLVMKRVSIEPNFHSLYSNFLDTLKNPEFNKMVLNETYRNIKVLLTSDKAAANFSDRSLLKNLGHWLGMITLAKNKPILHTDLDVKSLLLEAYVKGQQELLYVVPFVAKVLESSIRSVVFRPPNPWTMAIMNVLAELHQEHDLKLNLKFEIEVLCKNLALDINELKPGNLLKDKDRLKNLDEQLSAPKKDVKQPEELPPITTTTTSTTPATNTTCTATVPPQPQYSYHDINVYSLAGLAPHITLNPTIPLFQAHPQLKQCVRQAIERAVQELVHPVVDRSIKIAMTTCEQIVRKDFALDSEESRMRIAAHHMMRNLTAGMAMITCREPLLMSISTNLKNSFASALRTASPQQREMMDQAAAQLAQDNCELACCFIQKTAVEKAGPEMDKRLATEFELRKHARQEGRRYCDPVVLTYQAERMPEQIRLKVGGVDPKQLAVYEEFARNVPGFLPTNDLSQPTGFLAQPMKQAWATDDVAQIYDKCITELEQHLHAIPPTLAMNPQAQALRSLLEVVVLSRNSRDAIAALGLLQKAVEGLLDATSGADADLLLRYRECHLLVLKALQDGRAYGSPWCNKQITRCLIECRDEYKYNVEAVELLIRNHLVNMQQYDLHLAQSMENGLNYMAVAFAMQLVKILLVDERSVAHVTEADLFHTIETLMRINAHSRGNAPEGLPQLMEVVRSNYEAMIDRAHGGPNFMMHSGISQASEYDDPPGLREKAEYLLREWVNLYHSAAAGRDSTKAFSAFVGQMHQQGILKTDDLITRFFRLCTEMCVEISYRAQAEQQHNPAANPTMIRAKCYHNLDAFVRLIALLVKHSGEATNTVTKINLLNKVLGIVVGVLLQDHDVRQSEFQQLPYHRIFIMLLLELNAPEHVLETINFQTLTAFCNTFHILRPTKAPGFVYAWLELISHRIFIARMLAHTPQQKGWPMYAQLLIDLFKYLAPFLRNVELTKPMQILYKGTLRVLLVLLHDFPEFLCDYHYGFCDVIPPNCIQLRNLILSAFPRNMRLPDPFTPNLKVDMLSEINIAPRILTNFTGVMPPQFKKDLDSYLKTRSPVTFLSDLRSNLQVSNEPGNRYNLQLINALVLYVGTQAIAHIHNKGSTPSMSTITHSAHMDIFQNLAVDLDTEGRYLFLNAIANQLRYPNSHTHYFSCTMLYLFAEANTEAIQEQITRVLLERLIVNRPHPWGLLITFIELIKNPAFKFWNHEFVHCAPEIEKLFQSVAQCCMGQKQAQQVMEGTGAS
UniProt Q92600: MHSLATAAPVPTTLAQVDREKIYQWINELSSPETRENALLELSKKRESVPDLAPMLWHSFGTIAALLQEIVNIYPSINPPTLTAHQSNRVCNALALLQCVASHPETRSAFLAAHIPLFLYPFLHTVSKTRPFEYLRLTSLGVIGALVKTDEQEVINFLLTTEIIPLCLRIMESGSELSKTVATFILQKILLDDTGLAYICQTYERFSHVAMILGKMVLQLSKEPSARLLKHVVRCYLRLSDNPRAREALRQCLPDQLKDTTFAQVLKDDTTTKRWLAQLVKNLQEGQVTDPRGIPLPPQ
UniProt Q9NZN8: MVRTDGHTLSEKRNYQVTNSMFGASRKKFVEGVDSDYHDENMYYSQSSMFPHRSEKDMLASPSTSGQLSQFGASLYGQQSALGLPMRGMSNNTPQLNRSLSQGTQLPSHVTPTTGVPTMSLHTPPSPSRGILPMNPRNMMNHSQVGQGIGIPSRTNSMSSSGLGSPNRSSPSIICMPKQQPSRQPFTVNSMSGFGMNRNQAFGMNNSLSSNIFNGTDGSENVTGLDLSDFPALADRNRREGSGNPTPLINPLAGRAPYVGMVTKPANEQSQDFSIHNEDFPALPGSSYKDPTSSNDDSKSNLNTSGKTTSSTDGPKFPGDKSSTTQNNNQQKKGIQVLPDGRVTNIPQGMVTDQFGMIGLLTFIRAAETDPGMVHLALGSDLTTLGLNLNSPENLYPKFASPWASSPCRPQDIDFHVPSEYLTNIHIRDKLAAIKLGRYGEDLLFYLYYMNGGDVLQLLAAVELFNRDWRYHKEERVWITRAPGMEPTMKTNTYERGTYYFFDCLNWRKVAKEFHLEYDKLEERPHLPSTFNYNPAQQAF
UniProt O75175: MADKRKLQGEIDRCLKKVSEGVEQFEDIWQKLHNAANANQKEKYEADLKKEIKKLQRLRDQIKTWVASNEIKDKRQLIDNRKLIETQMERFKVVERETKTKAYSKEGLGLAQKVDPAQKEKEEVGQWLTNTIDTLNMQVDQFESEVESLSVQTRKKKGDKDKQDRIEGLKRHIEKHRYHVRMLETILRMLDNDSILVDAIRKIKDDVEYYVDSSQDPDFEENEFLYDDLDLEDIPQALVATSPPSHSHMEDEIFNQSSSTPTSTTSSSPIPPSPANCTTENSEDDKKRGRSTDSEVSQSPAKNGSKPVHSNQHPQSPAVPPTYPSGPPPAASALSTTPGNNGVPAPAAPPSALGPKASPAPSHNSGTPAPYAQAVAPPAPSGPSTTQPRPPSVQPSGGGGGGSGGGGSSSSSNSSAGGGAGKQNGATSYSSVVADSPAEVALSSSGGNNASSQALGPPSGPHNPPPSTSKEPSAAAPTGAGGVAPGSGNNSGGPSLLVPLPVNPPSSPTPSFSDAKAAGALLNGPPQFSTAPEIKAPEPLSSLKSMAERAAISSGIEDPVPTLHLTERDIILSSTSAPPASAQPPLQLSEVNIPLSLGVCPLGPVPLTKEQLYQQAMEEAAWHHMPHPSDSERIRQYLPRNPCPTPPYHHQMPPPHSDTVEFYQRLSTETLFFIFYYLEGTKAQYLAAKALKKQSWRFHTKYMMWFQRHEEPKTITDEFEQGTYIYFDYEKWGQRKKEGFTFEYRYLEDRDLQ

Measured: binding

CNOT3 subunit of human CCR4-NOT (from UniProt O75175)
binds: [1] | [2] | [3] | [4]
